The target of test [1] is protein A (albumin) (bovine (endogenous in fetal bovine serum)) (UniProt P02769). The test can be described thus: cross-linking; proteins A, B and D (4 μg) with glutaraldehyde (1X = 0.00625%) in 10 μl PC buffer, 37 °C 30 min; 8% reduced SDS-PAGE, Coomassie and Western blotting; monomer to dimer of the albumin-α1-antitrypsin unit; dimerization inhibited by 2 × SDS and 0.05% β-ME; both purified. (In general: Immunoblotting shows a protein as a band on a membrane.)

Protein sequences, listed by entry. Tags and fused reporters are not part of them. Residues count along the entry.
UniProt P02769, residues 25-607: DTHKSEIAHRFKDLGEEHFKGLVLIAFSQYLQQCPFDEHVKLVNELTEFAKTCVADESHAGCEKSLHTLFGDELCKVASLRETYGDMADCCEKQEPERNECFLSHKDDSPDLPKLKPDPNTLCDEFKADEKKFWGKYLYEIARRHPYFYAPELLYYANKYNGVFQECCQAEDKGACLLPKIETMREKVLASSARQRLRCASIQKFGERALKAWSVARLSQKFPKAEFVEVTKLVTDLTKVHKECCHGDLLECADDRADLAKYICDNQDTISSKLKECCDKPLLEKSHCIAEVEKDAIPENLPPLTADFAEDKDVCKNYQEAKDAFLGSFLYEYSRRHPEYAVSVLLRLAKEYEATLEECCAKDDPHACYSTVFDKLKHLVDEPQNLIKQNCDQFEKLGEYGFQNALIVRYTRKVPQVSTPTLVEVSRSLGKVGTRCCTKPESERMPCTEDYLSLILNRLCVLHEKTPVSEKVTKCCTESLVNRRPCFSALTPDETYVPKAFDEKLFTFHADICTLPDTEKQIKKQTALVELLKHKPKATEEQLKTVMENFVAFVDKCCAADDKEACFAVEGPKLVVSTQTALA

Test [2] has as its target protein B (α1-antitrypsin) (bovine (endogenous in fetal bovine serum)) (UniProt P34955). Described as above.
Test [3] addresses protein A (albumin) (bovine (endogenous in fetal bovine serum)) (UniProt P02769). The test can be described thus: SDS-PAGE, Western blot, native PAGE and HPLC after reduction; protein D with increasing β-ME (0.05–0.8%); non-reducing SDS-PAGE, Western blotting, horizontal native PAGE pH8.8, HPLC-C4; both purified.
The target is the same in test [4]. The test can be described thus: co-purification and non-reducing SDS-PAGE with Western blot and LC/MS/MS; purified protein D on non-reducing 8% SDS-PAGE; antibodies against albumin and α1-antitrypsin; bands after reduction identified by LC/MS/MS; both purified.

No constants are given. Whether binding was seen depends on the method and setting. Some results given as binding are weak or reduced against the parent protein; the word gives no strength.

Data on two molecules can be found in PMC7809101, “Fetal bovine serum albumin inhibits antimicrobial peptide activity and binds drug only in complex with α1-antitrypsin” (Scientific Reports, 2021).

In the case of “protein A (albumin) (from UniProt P02769 25-607) (other; other documents disagree on this pair)”, the binding result in test [1] is “no binding”.

B1: protein B (α1-antitrypsin) (protein, UniProt P34955 25-416)
chain: GVLQGHAVQETDDTSHQEAACHKIAPNLANFAFSIYHHLAHQSNTSNIFFSPVSIASAFAMLSLGAKGNTHTEILKGLGFNLTELAEAEIHKGFQHLLHTLNQPNHQLQLTTGNGLFINESAKLVDTFLEDVKNLYHSEAFSINFRDAEEAKKKINDYVEKGSHGKIVELVKVLDPNTVFALVNYISFKGKWEKPFEMKHTTERDFHVDEQTTVKVPMMNRLGMFDLHYCDKLASWVLLLDYVGNVTACFILPDLGKLQQLEDKLNNELLAKFLEKKYASSANLHLPKLSISETYDLKSVLGDVGITEVFSDRADLSGITKEQPLKVSKALHKAALTIDEKGTEAVGSTFLEAIPMSLPPDVEFNRPFLCILYDRNTKSPLFVGKVVNPTQA
In the case of B1, the values for the binding result in test [2], in test [3] and in test [4] were “no binding”, “no binding (condition: with β-ME (0.05–0.8%))” and “binds”, respectively.
